Reference: PubChem BioAssay AID262 (DTP/NCI, 2004)
The list shows only some results of the screen, not a fair sample: its compounds were picked by chemical class. Other doses and runs of a compound may be missing. T/C is the treated group as % of the vehicle group. Schedule codes are those of the source, taken here to give the interval after Q, in days (D) or hours (H), and the number of doses after X. Some entries give survivors of the animals treated and no T/C: the source files T/C as zero there, which appears to mark a toxic dose or a test without result, not a measured value. Counts of survivors are from the toxicity check, whose day is not always given; animals may have died later.

System: LX-1 lung xenograft sc, nude mice, tumor weight
Assay: NCI In Vivo Anticancer Drug Screen. Data for tumor model Human Lung LX-1 Xenograft (subcutaneous) in NU/NU Swiss (nude) mice
Settings: T/C endpoint: optimum tumor weight change, schedule: Q04DX003 (ip), higher T/C = larger tumour
Description: The antitumor activity of compounds was measured in mice bearing transplantable tumors. Survival or tumor size were measured and the results are expressed as the measurement made in the treated group (T) divided by the measurement made in the vehicle treated control group (C). The tumor model used in this assay is Human Lung LX-1 Xenograft (subcutaneous) in NU/NU Swiss (nude) mice

Compound: ClCCN(CCCl)c1ccccc1
- T/C (dose: 50.0 mg/kg/injection, vehicle: saline with Tween-80, evaluated on day 34): 84 % of control
- survivor count (dose: 100.0 mg/kg/injection, vehicle: saline with Tween-80): 0 of 5 on day 36
- survivor count (dose: 200.0 mg/kg/injection, vehicle: saline with Tween-80): 0 of 5 on day 36

Compound: CC1=CC(=O)C(N(CCCl)CCCl)=CC1=O
- T/C (dose: 3.13 mg/kg/injection, vehicle: Klucel (hydroxypropylcellulose) (HPC), evaluated on day 39): 117 % of control

Compound: C[N+](CCCl)(CCCl)Cc1ccc([N+](=O)[O-])cc1
- T/C (dose: 12.5 mg/kg/injection, vehicle: saline, evaluated on day 34): 82 % of control
- T/C (dose: 25.0 mg/kg/injection, vehicle: saline, evaluated on day 34): 87 % of control
- T/C (dose: 50.0 mg/kg/injection, vehicle: saline, evaluated on day 34): 70 % of control
